Assay results reported in PubChem BioAssay AID504467 (National Center for Advancing Translational Sciences (NCATS), 2011).
Out of some 330,000 compounds screened, about 7,700 (2.3%) were called active. Inconclusive results, whose numbers are uncertain, are shown with a selection of clear calls. The call rests on the fitted dose curve; in most records, active means well fitted inhibition curve with a large enough effect; inconclusive means small, poorly fitted or top-dose-only effect, or effect the other way; inactive means flat fitted curve, though single readings scatter. Potencies beside an inconclusive call are fits to weak or partial responses and may not hold up.

Assay: qHTS screen for small molecules that inhibit ELG1-dependent DNA repair in human embryonic kidney (HEK293T) cells expressing luciferase-tagged ELG1; further: nearly all actives have a fitted effect of over 55% in size
Conditions: HEK293T ELG1-luciferase reporter, luminescence, 16 h, DNA damage induced by 5-fluorouridine; activity change, negative = inhibition: at 46.1 µM (top of the series)
Summary of the method: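 Luminescence from the luciferase reporter, measured 30 min after ONE-Glo reagent at room temperature, was the read-out. Beforehand, 2,000 cells per well were exposed for 16 hr at 37 °C to 5-fluorouridine together with compound or vehicle.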
On the % scale 0 is the no-effect control and ±100 the full control effect; potency means the concentration at half of the fitted maximal effect.

SMILES | activity change, negative = inhibition | Potency
O=S(=O)(c1cccc(-c2cn3cccnc3n2)c1)N1CCCCCC1 | inactive: -3.59% | 
Cc1ccc2c(c1)NC(=O)CC(c1ccccc1)=N2 |  | inconclusive: 5.8 µM [activator, partial curve, poor fit]
CCOc1cccc(Nc2ccc([N+](=O)[O-])cn2)c1 |  | inconclusive: 20 µM [activator, partial curve]
CC(=O)Nc1ccc(N(C(=O)c2ccco2)C(C(=O)NC2CCCC2)c2ccc(N3CCOCC3)cc2)cc1 (stereo not drawn) | inactive: -9.74% | 
O=C(NCCc1ccc(O)c(O)c1)C1COc2ccccc2O1 (stereo not drawn) | inactive: -19.3% | 
CN(CC(=O)NC(=O)NC1CCCCC1)CC(=O)Nc1ccc(Cl)cc1 |  | inconclusive: 29.1 µM [inhibitor, single point]
Cn1c(=O)c2c(ncn2Cc2ccc(Cl)c(Cl)c2)n(C)c1=O |  | inconclusive: 11.6 µM [inhibitor, partial curve]
Cc1ccc2cc(NC(=O)CC(CC(=O)O)c3ccccc3)ccc2n1 (stereo not drawn) | inactive: -1.43% | 
CCCCC(=NCCc1c(C)[nH]c2ccccc12)C1=C(O)CC(c2ccccc2)CC1=O (stereo not drawn) |  | inconclusive: 29.1 µM [inhibitor, single point]
CCOC(=O)CNC(=O)CNC(=O)c1ccc(OC(C)C)cc1 |  | inconclusive: 11.6 µM [activator, partial curve, poor fit]
CCOC(=O)CN(Cc1sccc1C)C(=O)Nc1cccc(OC)c1 |  | inconclusive: 16.4 µM [activator, single point]
Cc1cs/c(=N/C(=S)Nc2ccccc2)n1C |  | inconclusive: 2.91 µM [activator, full curve]
COc1ccc(OC)c(C(=O)c2coc3ccc(OC(C)=O)cc23)c1 | inactive: -0.0807% | 
Cc1ccccc1Oc1cc(NC(=O)CCCn2nc(C)c([N+](=O)[O-])c2C)cc([N+](=O)[O-])c1 |  | inconclusive: 29.1 µM [inhibitor, single point]
COC(=O)c1sccc1NC(=O)COc1ccc(Cl)cc1 |  | inconclusive: 18.4 µM [activator, single point]
C[C@H](NC(=O)c1ccco1)C(=O)Nc1cc(S(=O)(=O)N2CCCC2)ccc1OCC(F)(F)F | inactive: 4.43% | 
COc1cc(NC(=O)c2ccc(C)c([N+](=O)[O-])c2)ccc1NC(=O)c1ccco1 | inconclusive: 104% [activator] | 
CCN(CC)CCn1c(=S)[nH]c2cc(C(=O)N3CC(C)CC(C)C3)ccc2c1=O (stereo not drawn) | inactive: 4.12% | 
Cc1ccc(C(=O)OCC(=O)Nc2nc(-c3ccccc3)cs2)cc1NC(=O)c1ccco1 |  | inconclusive: 29.1 µM [inhibitor, single point]
CCC(=O)c1ccc(OCC(=O)O)cc1 | inactive: -0.631% | 
CSCC[C@H](NC(=O)N1CCn2c1nc1ccccc12)C(=O)NCc1ccc(C)cc1 | inactive: -5.39% | 
CCOc1ccc(N2CC(C(=O)NCc3nnnn3-c3ccc(C)c(C)c3)CC2=O)cc1 (stereo not drawn) | inactive: -10.1% | 
CCc1cccc(NC(=O)CN(C)S(=O)(=O)c2cccc3cccnc23)c1 |  | inconclusive: 20.6 µM [inhibitor, single point]

SMILES | activity change, negative = inhibition | Potency
CCN(Cc1ccccc1)S(=O)(=O)c1ccc(C(=O)N2CCN(c3nc4ccccc4s3)CC2)cc1 |  | active: 11.6 µM
COCCNc1nc2c(S(=O)(=O)c3cc(C)ccc3C)nnn2c2ccccc12 |  | inconclusive: 20.6 µM [inhibitor, single point]
COc1cccc(NC(=O)CCc2nnc3ccc(N4CCN(c5cccc(OC)c5)CC4)nn23)c1 | inactive: 4.18% | 
COc1ccc(-c2ccc(=O)n(Cc3ccc([N+](=O)[O-])cc3)n2)cc1 |  | inconclusive: 9.2 µM [inhibitor, partial curve, poor fit]
CC(=O)Nc1ccc(S(=O)(=O)NC2CC(=O)N(c3ccc4c(c3)OCCO4)C2)cc1 (stereo not drawn) | inactive: 14.8% | 
Cc1cc(C)n2nc(SCCOc3ccccc3)nc2n1 | inactive: 19.4% | 
Cc1ccc(C(=O)c2ccc(N3CCOCC3)c(F)c2)cc1 |  | inconclusive: 18.4 µM [activator, partial curve]
CN(CC(=O)Nc1cccc(F)c1)C(=O)c1ccccc1-n1cnnn1 | inactive: 1.97% | 
O=c1c(Cl)c(N2CCOCC2)cnn1-c1nc2ccccc2[nH]1 |  | inconclusive: 8.2 µM [activator, partial curve]
CCc1nc(CNC(=O)C2CCC(=O)N(Cc3cccc(OC)c3)C2)no1 (stereo not drawn) |  | inconclusive: 25.9 µM [activator, partial curve, poor fit]
CC(=O)N1c2ccc(S(=O)(=O)N3CCC(C(=O)Nc4cc(C)ccn4)CC3)cc2CC1C (stereo not drawn) |  | inconclusive: 29.1 µM [inhibitor, single point]
COCCn1c(C)cc(C(=O)COc2cccnc2[N+](=O)[O-])c1C |  | inconclusive: 23.1 µM [activator, partial curve]
COC(=O)c1ccc(CSc2nc(N3CCOCC3)c3c(c2C#N)CC(C)(C)OC3)o1 |  | inconclusive: 1.3 µM [inhibitor, full curve]
Cc1ccc(/C=C/c2nc3ccccc3[nH]2)o1 |  | inconclusive: 1.83 µM [activator, partial curve]
Cc1ccc(S(=O)(=O)NCC(=O)NCC2CCCCC2)cc1C | inactive: -5.77% | 
CCN(c1ccc2c(c1)OCO2)S(=O)(=O)c1cc(Br)cc2c1N(C(C)=O)CC2 | inactive: -15.8% | 
Cn1c(=O)c(=O)n(C)c2cc(S(=O)(=O)NCCOc3ccccc3)ccc21 | inactive: -6.08% | 
CN(C)CCCNC(=O)C[C@H]1C[C@H](C(=O)N2CCCCC2)[C@@]2(CCc3ccccc3)c3[nH]c4cc(-c5ccco5)ccc4c3CCN2C1=O |  | inconclusive: 29.1 µM [activator, single point]
Clc1ccc(-n2nnnc2SCc2c(-c3ccccc3)nc3sccn23)cc1 |  | inconclusive: 18.4 µM [inhibitor, single point]
CN(C(=O)c1ccc2c(=O)n3c(nc2c1)CCCCC3)c1ccccc1F | inactive: -20.5% | 
Cc1cccc([C@@H]2[C@@H]3C(=O)N(Cc4ccccc4)C(=O)[C@@H]3[C@]3(CC(C)C)C(=O)N(c4cccc(F)c4)C(=O)N23)c1 |  | inconclusive: 2.24 µM [activator, partial curve]
COCC(C)n1c(SCC(=O)NC(=O)NCc2ccccc2)nc2ccccc2c1=O (stereo not drawn) |  | inconclusive: 29.1 µM [inhibitor, single point]
Cc1cccc2sc(NC(=O)C3c4ccccc4Oc4ccccc43)nc12 |  | inconclusive: 23.1 µM [inhibitor, single point]

SMILES | activity change, negative = inhibition | Potency
O=C(N/N=C/c1sc(=O)n(-c2ccccc2)c1Cl)c1ccccc1 |  | inconclusive: 4.61 µM [activator, full curve]
COc1ccc(-c2ccc(OC)cc2)cc1 |  | inconclusive: 29.1 µM [activator, single point]
CC(C)(C)OC(=O)N1CCN(C(=O)Nc2ccc3c(c2)OCCO3)CC1 | inactive: 29.1% | 
Cc1ccc2cc(CN(Cc3ccco3)S(=O)(=O)c3c(C)ccc4nsnc34)c(=O)[nH]c2c1 |  | inconclusive: 23.1 µM [inhibitor, single point]
O=S(=O)(c1ccc(OCc2nc3ccccc3s2)c(Cl)c1)N1CCOCC1 |  | inconclusive: 2.91 µM [activator, full curve, poor fit]
Cc1ccc(CNC(=O)CSc2nc3ccsc3c(=O)n2Cc2ccc(C(=O)O)cc2)cc1 | inactive: 6.3% | 
CN=C1N(C)C[C@@H]2[C@@H]3C(=O)N(Cc4ccccc4)C(=O)[C@@H]3[C@](Cc3ccccc3)(C(=O)OC)N12 |  | inconclusive: 29.1 µM [activator, single point]
CN1CCN(C(=S)c2ccc(-c3cccc([N+](=O)[O-])c3)o2)CC1 |  | inconclusive: 9.2 µM [activator, partial curve]
COc1ccc(C(CNC(=O)c2ccc(S(=O)(=O)N(C)C)cc2)N(C)C)cc1 (stereo not drawn) | inactive: 5.42% | 
CCc1ccc(/C=N\NC(=O)c2ccc(Br)o2)s1 |  | inconclusive: 8.2 µM [activator, partial curve]
COc1cc(SC)ccc1C(=O)Nc1ccc2c(c1)OCO2 |  | inconclusive: 3.26 µM [activator, full curve]
C/C(=N\NC(=O)CSCc1ccc([N+](=O)[O-])cc1)c1ccccc1O |  | inconclusive: 7.31 µM [inhibitor, partial curve, poor fit]
Cc1ccc(Cn2c(=S)[nH]c3ccc(N4CCOCC4)cc3c2=O)o1 | inactive: -20.6% | 
CCOC(=O)N1CCN(Cc2nc(N)nc(Nc3ccc(OC)cc3)n2)CC1 | inactive: -10.6% | 
O=C(N/N=C\c1cccc(Cl)c1)c1ccc(Cn2cc(Br)c([N+](=O)[O-])n2)o1 |  | inconclusive: 20.6 µM [inhibitor, single point]
O=C(O)c1ccc(NC2=C/C(=N/S(=O)(=O)c3ccccc3)c3ccccc3C2=O)cc1 |  | active: 4.61 µM
Cc1ccc(/C=C2\Sc3ccccc3C2=O)s1 |  | inconclusive: 20.6 µM [activator, partial curve]
O=C(NCCc1ccccc1)C(=O)NCC1CCCO1 (stereo not drawn) |  | inconclusive: 18.4 µM [activator, single point]
COc1ccc(Br)cc1CNc1ccccc1 |  | inconclusive: 25.1 µM [activator, single point]
CCOC(=O)c1c(C)[nH]c(C(=O)OCc2ccc([N+](=O)[O-])cc2)c1C |  | inconclusive: 29.1 µM [inhibitor, partial curve, poor fit]
COc1ccc(N2CCN(S(=O)(=O)c3cc4c(cc3C)N(C(C)=O)CCO4)CC2)cc1 |  | inconclusive: 6.51 µM [inhibitor, partial curve, poor fit]
COc1cc(/C=C(\C#N)C(=O)Nc2ccccc2F)ccc1OCCN1CCOCC1 |  | inconclusive: 16.4 µM [activator, partial curve]

Part of the list above, comma-delimited.
SMILES,"activity change, negative = inhibition",Potency
CN=C1N(C)C[C@@H]2[C@@H]3C(=O)N(Cc4ccccc4)C(=O)[C@@H]3[C@](Cc3ccccc3)(C(=O)OC)N12,,"inconclusive: 29.1 µM [activator, single point]"
CN1CCN(C(=S)c2ccc(-c3cccc([N+](=O)[O-])c3)o2)CC1,,"inconclusive: 9.2 µM [activator, partial curve]"
COc1ccc(C(CNC(=O)c2ccc(S(=O)(=O)N(C)C)cc2)N(C)C)cc1 (stereo not drawn),inactive: 5.42%,
CCc1ccc(/C=N\NC(=O)c2ccc(Br)o2)s1,,"inconclusive: 8.2 µM [activator, partial curve]"
COc1cc(SC)ccc1C(=O)Nc1ccc2c(c1)OCO2,,"inconclusive: 3.26 µM [activator, full curve]"
